Assay results from patent EP0937460A2, “Use of an antidiarrheal for the manufacture of a medicament for the treatment of inflammatory conditions” (Adolor Corporation, priority 1994, dated 1995).
Structures can show the parent of a compound that is named as a salt.

Tests used:
TNF production [1] = assay: Inhibition of LPS-stimulated TNF production in the human monocytic cell line THP-1 (ELISA); assay type: cell-based; conditions: THP-1 cells
Experimental: Cultures were maintained by the addition of fresh growth medium to a T-75 or T-150 flask of cells in suspension, or by pelleting the cells and re-suspending them in the appropriate volume of fresh medium. Maximum cell density was 1.0 x 10^6 cells per mL and cultures were seeded at a minimum density of 0.2 x 10^6 cells per ml.
THP-1 cells were plated into 24-well plates at a density of 1.0 x 10^6 cells per mL in 0.5 mL medium per well. […] For measurement of IL-1α and IL-1β production, THP-1 cells were incubated with 500 ng/mL or 50 ng/mL LPS and incubated for 16 hours. Levels of secreted cytokine were measured in cell supernatants as for TNF. Cell-associated species were measured in cell lysates which were prepared by repetitive freeze-thawing of cells. For in vitro screening, drugs at 10 µM concentration were co-administered with LPS. […] Drug effects on cell viability were assessed by the MTT assay. […] Water-soluble drugs were dissolved in aqueous solutions such as RPMI or deionized H20. The final concentration of DMSO in the incubation medium was at or below 0.01% and that of ethanol was at or below 0. 1%. The effect on cell viability was evaluated by the MTT assay.

TNF production [2] = assay: Inhibition of LPS-stimulated TNF production in the mouse macrophage line RAW 264.7 (ELISA); assay type: cell-based; conditions: RAW264.7, read-out: IC50 value for the inhibition of LPS-stimulated TNF production
Experimental: Cells were passaged at confluence by scraping and routinely plated at a density of 0.25 x 10^6 and 0.5 x 10^6 cells per T-75 and T-150, respectively.
Typically, RAW cells were plated at 0.25 x 10^6 cells per well of a 24-well plate, in 0.5 mL media per well on the day prior to experimentation. […] 1%. Drugs were co-administered with the stimulant, LPS. After a 6-hr incubation period with LPS ± drug (n = 3-4), the media from the experimental wells was harvested, the cells were removed by microcentrifugation, and the media assayed for TNF by ELISA. Drugs were screened at 10 µM for their ability to alter TNF production by cells stimulated with 1 µg/mL or 10 ng/mL LPS. Dexamethasone, an anti-inflammatory corticosteroid, served as the reference for inhibition of the LPS response.

For `CN(C)C(=O)C(CCN1CCC(O)(c2ccc(Cl)cc2)CC1)(c1ccccc1)c1ccccc1` [Loperamide, 4-(p-chlorophenyl)-4-hydroxy-N,N-dimethyl-α, α-diphenyl-1-piperidine butyramide HCL], the “IC50 value (50% of the maximal inhibition, as defined by effects at 10 µM)” value (TNF production [1]) was “within the same range” and the IC50 (TNF production [2]) was under 1 µM.
